Our source for the IC50 values is US4085114A, “1,2-Benzoisoxazole derivatives and the production thereof” (Shionogi & Co., Ltd., priority 1975, dated 1978).

The subject of one experiment is isolated atria. Description: β-Blocking activities in the isolated atria (inhibition of positive inotropic effect of isoproterenol). The format is cell-based, Guinea-pigs. To be noted: Cavia porcellus, read-out: fifty percent inhibitory concentration on the positive inotropic effect of isoproterenol (IC50), 1. Atria. Here is the method:
(§1) Guinea-pigs of either sex, weighing between 400 - 700 g each, were killed by a sharp blow on the head. Their atria and trachea were quickly excised and freed of excess tissues.
1. β-Blocking activities in the isolated atria:
The isolated atria were mounted in a 30 ml organ bath filled with Krebs-Ringer-bicarbonate solution, which was constantly bubbled with a gas mixture of 95% oxygen and 5% carbon dioxide at 30° C. Spontaneous contractions of the atria were isometrically recorded on the polygraph (RM-150, Nihon Kohden Kogyo) by mean of a F-D pick-up (N. K. K.) and the number of contractions in one minute was recorded on the home-made pulse counter triggered by the atrial contractions.
[…]. The benzisoxazole derivatives and propranolol were preincubated with the atria for 10 minutes before the administration of isoproterenol. The fifty percent inhibitory concentration of the benzisoxazole derivatives and propranolol on the positive inotropic effect of isoproterenol (IC50) were graphically determined.

The subject of the next experiment is isolated trachea. Description: β-Blocking activities in the isolated trachea (inhibition of isoproterenol-induced relaxation of tracheal chain). The format is cell-based, Guinea-pigs. The note with it: Cavia porcellus, read-out: fifty percent inhibitory concentration on the relaxation of tracheal chain by isoproterenol (IC50), 2. Trachea. The method, then: as §1
2. β-Blocking activities in the isolated trachea:
The isolated tracheal tube was cut into round slices consisting of two or three cartilage rings. After 8 such rings were linked, side by side, with an instant adhesive (Aron Alpha, Toa Gosei Kagaku), they were mounted in a 30 ml organ bath filled with Krebs-Ringer-bicarbonate solution, which was constantly bubbled with a gas mixture of 95% oxygen and 5% carbon dioxide at 37° C.
The isotonic relaxation of the tracheal chain by the administration of isoproterenol was recorded on the kymographic paper. […]. The benzisoxazole derivatives and propranolol were preincubated with the tracheal chain for 1 hour before the administration of isoproterenol. The fifty percent inhibitory concentration of the benzisoxazole derivatives and propranolol on the relaxation of tracheal chain by isoproterenol (IC50) were graphically determined.

SMILES strings stand for the structures. Converted amounts (≈) assume the structure as drawn.

For `CC(C)NCC(O)COc1cccc2ccccc12` (centres unmarked) [Propranolol, reference compound], the values for the IC50 in the experiment with isolated atria and in the experiment on isolated trachea were 12 ng/mL (≈ 0.0463 µM) and 2.8 ng/mL (≈ 0.0108 µM), respectively.
